Laboratory results as given in the supplement of paper PMC5949888.
Most values lie at the floor of the assay. Slopes are relative: functional sequences can read slightly below zero.

Tested on: Saccharomyces cerevisiae PS128 hsf1 delta, HSF1(1-493) fusion
Test: growth estimate (transactivation domain function in HSF1 fusion, heat-shock survival) (a.u. (slope of normalised read count over time)); higher = stronger growth at 37°C, i.e. more transactivation activity
Conditions: library: random library

| Substance | growth estimate |
| --- | --- |
| TPTGDSHARGICQSFSGSTY | < -0.25 |
| ACIVITGPS | < -0.25 |
| LERFCGRPGSTPPSSGQPPD | -0.232 |
| MNMD | < -0.25 |
| YRIGILAAVLAF | < -0.25 |
| NVPAHNSEGPAPE | < -0.25 |
| VLCFLCCRPPRNRG | < -0.25 |
| FKVWAAG | < -0.25 |
| GWSDRAVYGQFVADASCVAG | < -0.25 |
| GPHHRINKSAYSE | < -0.25 |
| KRKNRPAYAATISSE | < -0.25 |
| GNRL | < -0.25 |
| CSLDRSQDELNPLVS | < -0.25 |
| SPGLVGVGQYSWLGPR | < -0.25 |
| YVAPL | < -0.25 |
| SQYGMVMSRVFLSMVVL | < -0.25 |
| CVIAGQAST | < -0.25 |
| RRKVSSRMSRTTGVQRSTTR | < -0.25 |
| QSPQRQGQCFSGQSGDFYVL | < -0.25 |
| SLQRSVYRYSA | < -0.25 |
| LTEVPGQ | < -0.25 |
| LLSVPTGLQKVITCGS | < -0.25 |
| RNRASCTGTGL | < -0.25 |
| NENEVILSNVVRGTGTHTGA | < -0.25 |
| CTPTGLISVKPTQAW | < -0.25 |

| Substance | growth estimate |
| --- | --- |
| SPQLLCKLAASRAGEEKLGA | < -0.25 |
| RWAIRTH | < -0.25 |
| SPRCHMATHLPPLHINSWRL | < -0.25 |
| RGDTYSERQYI | < -0.25 |
| PIARPAYNRSFGEITIFRYP | < -0.25 |
| WVMQLGESSRSPSV | < -0.25 |
| HFLQ | < -0.25 |
| VTTTDG | < -0.25 |
| EPMNKLLAGYDGPVWMASTR | < -0.25 |
| TWTRARTFVLQRVPVGSRRS | < -0.25 |
| KAHEVS | < -0.25 |
| GTSGLTLLSAIFGRASSMTG | < -0.25 |
| GPLITRSPAVCAGPRCTVIS | < -0.25 |
| QHWAEACVSDWRIGVPLAPT | < -0.25 |
| FYDVNVTSGDRGVCKRFIAN | < -0.25 |
| RVLGKIGTRTDALPREPRVL | < -0.25 |
| ANIRLTGLKQFS | -0.246 |
| FNRARNVIAQTGLLWVVPY | < -0.25 |
| NPRWSGPMTDSVGVEYMTKL | -0.248 |
| LGKESRA | < -0.25 |
| VLSSHSVGVGSNSDTLTSFD | < -0.25 |
| SWSGGGRIKCQARAPPALIS | < -0.25 |
| FVLRPVFPMSLRNCLGVRDR | < -0.25 |
| GLIHGHDRTSGGGDVSGSHA | < -0.25 |
| DVSFRSDTP | < -0.25 |

5 records picked at random from the list so far, as already listed:

| Substance | growth estimate |
| --- | --- |
| FYDVNVTSGDRGVCKRFIAN | < -0.25 |
| DVSFRSDTP | < -0.25 |
| ANIRLTGLKQFS | -0.246 |
| TWTRARTFVLQRVPVGSRRS | < -0.25 |
| HFLQ | < -0.25 |

Next part

| Substance | growth estimate |
| --- | --- |
| LAQ | < -0.25 |
| GKLLTRGIRVLSVDNRGFRG | < -0.25 |
| GLRMV | < -0.25 |
| ALFCTRSHYNV | < -0.25 |
| DVLTH | < -0.25 |
| RQTQVKDTRCVLYHRH | < -0.25 |
| IWHCGFWNCAPID | -0.188 |
| FEMVGLVFPPTIDQGSLDSA | -0.243 |
| CNLAFHGVKRDGQWKRRRSK | < -0.25 |
| LELWNGLSTLGLS | < -0.25 |
| RLSREVSSEDNY | < -0.25 |
| GEGSTSVRALLGPNFGNGAG | < -0.25 |
| YISAVTPKCRCCRRLIVSTE | < -0.25 |
| PQALTNG | -0.248 |
| YRPSPISCMVRVDLGAYRDN | < -0.25 |
| TVILRCLQPPSVPSLAELGP | < -0.25 |
| YQKDFSTRWERIRMGWDIPD | < -0.25 |
| VTRATSELNMCARLPTVPH | < -0.25 |
| GTEVTTRSKHAIAQALDLMR | < -0.25 |
| GTRV | < -0.25 |
| PTFADDP | < -0.25 |
| CSELAGATSGKSDDL | < -0.25 |
| PSWCSQWALVGGFKVVYTR | < -0.25 |
| IFHCLLEEYLTLARAGSRAI | < -0.25 |
| PTGRGRRHGTTRKGFSEYTK | < -0.25 |

Four neighbouring entries from above, quoted:

| Substance | growth estimate |
| --- | --- |
| VTRATSELNMCARLPTVPH | < -0.25 |
| GTEVTTRSKHAIAQALDLMR | < -0.25 |
| GTRV | < -0.25 |
| PTFADDP | < -0.25 |

The list goes on.

| Substance | growth estimate |
| --- | --- |
| SVLLDQVGIRPWRAGPGNPS | < -0.25 |
| LGKMYPSITRPA | < -0.25 |
| HLWTCCKWGD | < -0.25 |
| EGTWIIRVYTKFSEALGTSA | < -0.25 |
| VGELD | < -0.25 |
| LSPASNIALFLSGPIADR | < -0.25 |
| AVPDPGRTVNRPWLNIEYGQ | < -0.25 |
| QAAAPRVGLTAVIVRSIRDP | < -0.25 |
| CSTDL | < -0.25 |
| WSTL | < -0.25 |
| VERDGIASQLSYG | < -0.25 |
| TLFFGSSLVTDISEVPCVRP | < -0.25 |
| VGRRSISGEGLIV | < -0.25 |
| VKRSLEIGVRLVVFKLTMPE | < -0.25 |
| VSVRLGSMWHRHTLRVFGLV | < -0.25 |
| SRVTTL | < -0.25 |
| GYSLVTYVALLPRAGGIRSQ | < -0.25 |
| GVTGDSGDRALTRDIFYGWH | -0.245 |
| ATLRLKMWGKTIRASGTT | < -0.25 |
| GFRKG | < -0.25 |
| REGAAPHPARLCLAGHYTLH | < -0.25 |
| GFANITTGMRQAVPYIEGGP | < -0.25 |
| NMLIGVMLQDGTWNVQRYWS | < -0.25 |
| YNKHFRTFPTAR | < -0.25 |
| LLT | < -0.25 |

| Substance | growth estimate |
| --- | --- |
| GGPRFLLAPPAIGKQGGRTL | < -0.25 |
| LSGE | < -0.25 |
| PLR | < -0.25 |
| CLHTLWEIYWVAVEYTLGSV | < -0.25 |
| PVAGH | < -0.25 |
| AHLFGSLER | < -0.25 |
| TIARDYEMDLHCIVSRFRPH | < -0.25 |
| SIITGHCRERADIQCHALEI | < -0.25 |
| KSAEKGGVTPVN | < -0.25 |
| FDWY | < -0.25 |
| GTSFHAIG | < -0.25 |
| FGQSLVMW | < -0.25 |
| KMPWRCVVARRSRSWA | < -0.25 |
| DLILIFALGEMDVGVCRLSG | < -0.25 |
| FSRMRVACIGLERGSQVGGE | < -0.25 |
| SRGTGGGTGRYKARLQRSFA | < -0.25 |
| LLPRGDNDFPKGPDYATFGQ | < -0.25 |
| VSCLSTSVGEGLSYLSPIDG | < -0.25 |
| LFLRGALYCQNLHWNSPATS | < -0.25 |
| ERVAWWLVARCLRTPVGEDV | < -0.25 |
| HCWMVMVSERMGAVGSRAVE | < -0.25 |
| FCGAQLTSPLGKREDGFSTF | < -0.25 |
| ARVLCPVGGSKSTKRK | < -0.25 |
| HKLRTARRGALEHPRSE | < -0.25 |
| LLSLKRRPWFLEGRISDPAR | < -0.25 |

| Substance | growth estimate |
| --- | --- |
| RTMIGETLASWT | < -0.25 |
| QWRGKPKGAKRDACAQSYGH | < -0.25 |
| LASSWSRYIRMLSYQEPSCA | < -0.25 |
| SWLN | -0.23 |
| YAANPDRLGDRRKSSKHDQD | < -0.25 |
| RWIL | < -0.25 |
| GPVSGGSPRGFVS | < -0.25 |
| PCPTPC | < -0.25 |
| CGSWPDTNCQYLTRRELCPS | < -0.25 |
| WGTAGSNNFKRGGASHTTGL | < -0.25 |
| TPIQDHASCWVRGSTLMIDA | < -0.25 |
| AKLQRTDF | < -0.25 |
| RAVTVT | < -0.25 |
| LIAEDVFSSVQIVRRDNSMK | < -0.25 |
| YSKLEIGIMYCSRSQIDPVK | < -0.25 |
| SDKQCFGRVLGFKAY | -0.246 |
| APPSALQERVGLSM | < -0.25 |
| VVKRC | < -0.25 |
| HPNGPRMVSCNWLT | < -0.25 |
| TRARGMRPERPGCNNGSRGG | < -0.25 |
| NRTVALGMRI | < -0.25 |
| NTGWQARCY | < -0.25 |
| INTRWERIGR | -0.243 |
| RILLGVEGAPFVQAGFVRVY | < -0.25 |
| ESYGPPSENYQCPRFCDELT | < -0.25 |

| Substance | growth estimate |
| --- | --- |
| CCWCARAALQPD | < -0.25 |
| VQFGELSKKWLVSELVYGLE | < -0.25 |
| IVKSLDATLKY | < -0.25 |
| WWNFFNKLSVVVCSNRVTVR | < -0.25 |
| QVRCDIPFCLTISWGPRNLG | < -0.25 |
| CSSWLGGTGHRLSLCRVAFG | < -0.25 |
| DKTVVKSKQQHQRYR | < -0.25 |
| SKGPKANMRLRCPSRLEIVI | < -0.25 |
| RSAPAISSQSLRLGGEVFRF | < -0.25 |
| HPKTRHIRGIGGRGSSYIYR | < -0.25 |
| MLSRYL | < -0.25 |
| YSRVCYSYKTLTRRRASPSA | < -0.25 |
| RSGSRGHGGARNAGQGKTVC | < -0.25 |
| NPDDLINQGEG | < -0.25 |
| LIYIARHRWIPMLASWLSWA | < -0.25 |
| AFISLSVVVTQSDPCVSAHR | < -0.25 |
| YGWHRPPTSAGEQDRLVAAM | < -0.25 |
| CDRDSV | < -0.25 |
| VFGHSASRKEWIIVQIGACN | < -0.25 |
| GTCRHRQARVLIPAERLPLK | < -0.25 |
| KRCLRIGRCK | < -0.25 |
| TAPRR | < -0.25 |
| LILTME | < -0.25 |
| VFEVLLSFSFEVMLSNDRYL | < -0.25 |
| STRTGGT | -0.242 |

Single values from the list:
Entry for CCWCARAALQPD under growth estimate: < -0.25
Entry for RLSREVSSEDNY under growth estimate: < -0.25
Entry for SIITGHCRERADIQCHALEI under growth estimate: < -0.25

(list continues)

| Substance | growth estimate |
| --- | --- |
| PLTGIWCKQGTGALDQSGIP | < -0.25 |
| AGGR | < -0.25 |
| PTAFVLDLLKCSSLTRVP | < -0.25 |
| GSMM | < -0.25 |
| GGAYTRNYWECGQPT | < -0.25 |
| TLFGCDRVSVSRRL | < -0.25 |
| SIKGNAEVNACMDLAQTSPR | < -0.253 |
| LGGESRSVLSPVRS | < -0.25 |
| RNLGVVRDTL | -0.246 |
| RSIRQC | -0.246 |
| PAGGFGPDSRRVYLNPGSFS | < -0.25 |
| ISNAVERR | < -0.25 |
| LDKWAFGVTGLTPANPSLGT | < -0.25 |
| RSGINSEGDRS | < -0.25 |
| GDHDILNWATNQAALCSPRT | 0.0176 |
| NNGHFHQVSGDVKKVRLEPC | < -0.25 |
| RGNR | < -0.25 |
| AVKVDQ | < -0.25 |
| KHCCGLEAGSRCRNPQLSGF | < -0.25 |
| VGYGCGGFD | < -0.25 |
| SKTRLQERSADGWPTTVLYR | < -0.25 |
| ITSLSLTCVSLHGRAQIREG | < -0.25 |
| SFESLTVEKNAG | < -0.25 |
